{"source": "PubChem BioAssay AID1159584 (Peter MacCallum Cancer Centre, 2016)", "screen": "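Genes that CDH1-null MCF10A cells selectively depend on to survive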 (primary screen)", "system": "human MCF10A breast epithelial cells, parental and CDH1-null", "knock-down reagent": "siRNA against human genes", "measured": "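ATP luminescence (CellTiter-Glo) viability per line relative to mean mock wells over all plates, and the ratio of CDH1-null to parental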", "direction": "CDH1-null / parental viability ratio: higher = CDH1-null cells survive relatively better than parental; CDH1-null viability vs mock: higher = more viable CDH1-null cells", "units": "CDH1-null viability vs mock in fraction of mock", "note": "Here is an unselected part of about 18,000 reagents tested. Not all columns of the deposit are shown. The record does not give: the amount of reagent, the time to read-out."}
{"target": "PGBD4 (piggyBac transposable element derived 4)", "CDH1-null / parental viability ratio": 1, "CDH1-null viability vs mock": 1.08}
{"target": "GOLGA5 (golgin A5)", "CDH1-null / parental viability ratio": 1.09, "CDH1-null viability vs mock": 1.11}
{"target": "PDE4C (phosphodiesterase 4C)", "CDH1-null / parental viability ratio": 0.83, "CDH1-null viability vs mock": 0.68}
{"target": "LETM1", "CDH1-null / parental viability ratio": 1.22, "CDH1-null viability vs mock": 1}
{"target": "ARMC9 (armadillo repeat containing 9)", "CDH1-null / parental viability ratio": 1.1, "CDH1-null viability vs mock": 0.92}
{"target": "IL2RB (interleukin 2 receptor subunit beta)", "CDH1-null / parental viability ratio": 0.98, "CDH1-null viability vs mock": 0.78}
{"target": "CLDN17 (claudin 17)", "CDH1-null / parental viability ratio": 1.37, "CDH1-null viability vs mock": 0.82}
{"target": "KMT2E (lysine methyltransferase 2E (inactive))", "CDH1-null / parental viability ratio": 0.98, "CDH1-null viability vs mock": 0.94}
{"target": "NABP1 (nucleic acid binding protein 1)", "CDH1-null / parental viability ratio": 0.81, "CDH1-null viability vs mock": 0.58}
{"target": "ATF5 (activating transcription factor 5)", "CDH1-null / parental viability ratio": 0.81, "CDH1-null viability vs mock": 0.84}
{"target": "ZNF746 (zinc finger protein 746)", "CDH1-null / parental viability ratio": 0.79, "CDH1-null viability vs mock": 0.6}
{"target": "ZNF22 (zinc finger protein 22)", "CDH1-null / parental viability ratio": 0.78, "CDH1-null viability vs mock": 0.8}
{"target": "KCNQ5 (potassium voltage-gated channel subfamily Q member 5)", "CDH1-null / parental viability ratio": 1.17, "CDH1-null viability vs mock": 0.84}
{"target": "SACM1L (SAC1 like phosphatidylinositide phosphatase)", "CDH1-null / parental viability ratio": 1.11, "CDH1-null viability vs mock": 0.92}
{"target": "REEP5 (receptor accessory protein 5)", "CDH1-null / parental viability ratio": 1.25, "CDH1-null viability vs mock": 1.19}
{"target": "ATG4D (autophagy related 4D cysteine peptidase)", "CDH1-null / parental viability ratio": 1.23, "CDH1-null viability vs mock": 0.86}
{"target": "ZNF260 (zinc finger protein 260)", "CDH1-null / parental viability ratio": 0.95, "CDH1-null viability vs mock": 0.8}
{"target": "ADAMTSL1 (ADAMTS like 1)", "CDH1-null / parental viability ratio": 1.03, "CDH1-null viability vs mock": 0.66}
{"target": "NHLRC4 (NHL repeat containing 4)", "CDH1-null / parental viability ratio": 1.44, "CDH1-null viability vs mock": 0.89}
{"target": "KCNQ1 (potassium voltage-gated channel subfamily Q member 1)", "CDH1-null / parental viability ratio": 1.15, "CDH1-null viability vs mock": 0.84}
{"target": "SELENOH (selenoprotein H)", "CDH1-null / parental viability ratio": 1.09, "CDH1-null viability vs mock": 0.94}
{"target": "LARS1 (leucyl-tRNA synthetase 1)", "CDH1-null / parental viability ratio": 1, "CDH1-null viability vs mock": 0.77}
{"target": "NCAPG (non-SMC condensin I complex subunit G)", "CDH1-null / parental viability ratio": 1.02, "CDH1-null viability vs mock": 0.88}
{"target": "ZDHHC1 (zDHHC palmitoyltransferase 1)", "CDH1-null / parental viability ratio": 1.7, "CDH1-null viability vs mock": 0.68}
{"target": "OR8A1 (olfactory receptor family 8 subfamily A member 1)", "CDH1-null / parental viability ratio": 0.93, "CDH1-null viability vs mock": 0.8}
{"target": "SIRT2 (sirtuin 2)", "CDH1-null / parental viability ratio": 0.81, "CDH1-null viability vs mock": 0.7}
{"target": "TEK (TEK receptor tyrosine kinase)", "CDH1-null / parental viability ratio": 0.85, "CDH1-null viability vs mock": 0.82}
{"target": "SLITRK2 (SLIT and NTRK like family member 2)", "CDH1-null / parental viability ratio": 1.17, "CDH1-null viability vs mock": 0.96}
{"target": "HOMER2 (homer scaffold protein 2)", "CDH1-null / parental viability ratio": 0.95, "CDH1-null viability vs mock": 0.78}
{"target": "TNFRSF1B (TNF receptor superfamily member 1B)", "CDH1-null / parental viability ratio": 0.79, "CDH1-null viability vs mock": 0.62}
{"target": "PPM1F (protein phosphatase, Mg2+/Mn2+ dependent 1F)", "CDH1-null / parental viability ratio": 1.4, "CDH1-null viability vs mock": 0.81}
{"target": "MICOS10", "CDH1-null / parental viability ratio": 1.08, "CDH1-null viability vs mock": 0.54}
{"target": "HIRIP3 (HIRA interacting protein 3)", "CDH1-null / parental viability ratio": 1.08, "CDH1-null viability vs mock": 0.28}
{"target": "HPS4 (HPS4 biogenesis of lysosomal organelles complex 3 subunit 2)", "CDH1-null / parental viability ratio": 1.07, "CDH1-null viability vs mock": 0.86}
{"target": "NDUFA9 (NADH:ubiquinone oxidoreductase subunit A9)", "CDH1-null / parental viability ratio": 1.1, "CDH1-null viability vs mock": 1.12}

2 neighbouring reagents already listed:
{"target": "NCAPG (non-SMC condensin I complex subunit G)", "CDH1-null / parental viability ratio": 1.02, "CDH1-null viability vs mock": 0.88}
{"target": "ZDHHC1 (zDHHC palmitoyltransferase 1)", "CDH1-null / parental viability ratio": 1.7, "CDH1-null viability vs mock": 0.68}
